PubChem BioAssay AID652259 | Drosophila RNAi Screening Center, 2013

Assay: 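Knock-downs that push a Wingless-driven reporter up or down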 (primary screen)
Cells: Drosophila clone 8 imaginal disc epithelial cells
Reagents: long dsRNA against Drosophila genes
Conditions: pathway stimulated by co-transfected Wingless expression plasmid
Measured: 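Firefly luciferase from a tcf-site Wingless reporter, measured alongside co-transfected Renilla luciferase that tracks transfection; pathway stimulated by a Wingless plasmid; the firefly-to-Renilla ratio is not deposited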
Direction: firefly reporter light: higher = more Wg reporter light, before normalisation; Renilla control light: higher = more transfected or surviving cells
Call rule: 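Strong candidates differ from their plate mean by at least two out of four per-plate statistical tests; weak candidates meet just one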
Calls: active = candidate regulator (raises or lowers reporter); inactive = not a candidate
In all, the deposit lists about 22,000 reagents; shown is an unselected part of those that have a named target and a result. Over the whole deposit, 233 (1.1%) are marked active. 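Light values are raw, unnormalised plate reads; the ratio scores behind the reporter calls were not deposited.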 Reagents against one gene are numbered here. A plus sign joins genes that one reagent is predicted to hit. Not given: the amount of reagent, the time to read-out, the dose of the treatment.

| gene | reagent | reporter change call, replicate 1 | firefly reporter light, replicate 1 | firefly reporter light, replicate 2 | Renilla control light, replicate 1 | Renilla control light, replicate 2 | Call |
| --- | --- | --- | --- | --- | --- | --- | --- |
| Erk7 | 1 | – | 23737 | – | 10888 | – | inactive |
| Erk7 | 2 | – | 22690 | – | 9881 | – | inactive |
| Erk7 | 3 | – | 4.86e5 | 4.89e5 | 1.54e5 | 1.65e5 | inactive |
| Amy-d + Amy-p | 1 | – | 20985 | – | 11681 | – | inactive |
| RhoGAP5A | 1 | – | 3765 | 5876 | 1122 | 1938 | inactive |
| CG15923 | 1 | – | 2422 | 4075 | 1184 | 1575 | inactive |
| CG14540 | 1 | – | 14954 | – | 13633 | – | inactive |
| Hsp60D | 1 | – | 2522 | 6201 | 932 | 2037 | inactive |
| slf | 1 | – | 2053 | 7595 | 842 | 2626 | inactive |
| eIF3g1 | 1 | – | 4930 | 8621 | 599 | 1241 | inactive |
| SecCl | 1 | – | 4834 | – | 1931 | – | inactive |
| CG15202 | 1 | – | 22842 | – | 11225 | – | inactive |
| mnd | 1 | – | 7275 | – | 1993 | – | inactive |
| mRpL22 | 1 | – | 15177 | – | 7893 | – | inactive |
| Cpr76Bd | 1 | – | 15767 | – | 5464 | – | inactive |
| CG8757 | 1 | – | 4610 | – | 2125 | – | inactive |
| AhcyL2 | 1 | – | 13385 | – | 3075 | – | inactive |
| fit | 1 | – | 43348 | – | 9232 | – | inactive |
| Grasp65 | 1 | – | 12785 | – | 4096 | – | inactive |
| H15 | 1 | – | 1914 | 5725 | 912 | 1024 | inactive |
| H15 | 2 | – | 7.74e5 | 8.47e5 | 3.65e5 | 3.93e5 | inactive |
| CycB3 | 1 | – | 16893 | – | 12744 | – | inactive |
| Dcr-2 | 1 | Wg reporter activity raised | 9456 | – | 4298 | – | inactive |
| unc-5 | 1 | – | 24152 | 7.85e5 | 16464 | 3.94e5 | inactive |
| unc-5 | 2 | – | 5468 | – | 1850 | – | inactive |
| unc-5 | 3 | – | 3943 | – | 1525 | – | inactive |
| LamC | 1 | – | 13880 | – | 2818 | – | inactive |
| sca | 1 | – | 5450 | – | 1853 | – | inactive |
| CG17929 | 1 | – | 14400 | – | 2923 | – | inactive |
| Mp | 1 | – | 8216 | 7.77e5 | 4054 | 3.90e5 | inactive |
| Mp | 2 | – | 2466 | 7569 | 2058 | 2653 | inactive |
| Mp | 3 | – | 2561 | 5013 | 1424 | 1824 | inactive |
| isoQC | 1 | – | 8433 | – | 2796 | – | inactive |
| CG13148 | 1 | – | 9145 | – | 2294 | – | inactive |
| Galk | 1 | – | 3478 | – | 1804 | – | inactive |
| Cpr31A | 1 | – | 2500 | 4640 | 1121 | 3261 | inactive |
| Synd | 1 | – | 15363 | – | 3185 | – | inactive |
| CG15219 | 1 | – | 3284 | 9185 | 1344 | 3318 | inactive |
| CG32026 | 1 | – | 2726 | – | 994 | – | inactive |
| Eig71Eb | 1 | – | 9344 | – | 3872 | – | inactive |
| Hmgcl | 1 | – | 2017 | 5381 | 972 | 1994 | inactive |
| ATPCL | 1 | – | 8161 | – | 1962 | – | inactive |
| CG31949 | 1 | – | 22855 | – | 10672 | – | inactive |
| CG15580 | 1 | – | 11245 | – | 2567 | – | inactive |
| CG9626 | 1 | – | 5035 | – | 1828 | – | inactive |
| TM9SF2 | 1 | – | 8675 | – | 1959 | – | inactive |
| dl | 1 | – | 11186 | – | 2738 | – | inactive |
| dl | 2 | – | 3021 | 6534 | 1149 | 3443 | inactive |
| CG8388 | 1 | – | 5052 | – | 1590 | – | inactive |
| CG32379 | 1 | – | 1088 | 8864 | 989 | 2992 | inactive |
| PIG-O | 1 | – | 20455 | – | 5879 | – | inactive |
| Tsp42Ei | 1 | – | 3257 | 7305 | 837 | 2723 | inactive |
| CG7990 | 1 | – | 4972 | – | 1769 | – | inactive |
| CG7990 | 2 | Wg reporter activity raised | 2870 | 7174 | 329 | 1073 | active |
| DCX-EMAP | 1 | – | 4944 | – | 2244 | – | inactive |
| DCX-EMAP | 2 | Wg reporter activity raised | 6978 | – | 1194 | – | active |
| Mtk | 1 | – | 9016 | – | 2672 | – | inactive |
| Esp | 1 | – | 18832 | – | 16137 | – | inactive |
| Atf3 | 1 | – | 21651 | – | 6058 | – | inactive |
| CG15579 | 1 | – | 16208 | – | 8257 | – | inactive |
| NijA | 1 | – | 9187 | – | 2688 | – | inactive |
| CG3906 | 1 | – | 8237 | – | 1900 | – | inactive |
| CG17075 | 1 | – | 8900 | – | 3285 | – | inactive |
| alpha-Catr | 1 | – | 2805 | 8858 | 613 | 2448 | inactive |
| Gr85a | 1 | – | 2592 | – | 1155 | – | inactive |
| CG5455 | 1 | – | 2592 | 3817 | 1316 | 1684 | inactive |
| GstE2 | 1 | – | 6833 | – | 2528 | – | inactive |
| CG14961 | 1 | – | 6928 | – | 2569 | – | inactive |
| sro | 1 | – | 7192 | – | 2107 | – | inactive |
| Ogdh | 1 | – | 9000 | – | 4326 | – | inactive |
| Ogdh | 2 | – | 9045 | – | 3336 | – | inactive |
| E(var)3-9 | 1 | – | 15354 | – | 4360 | – | inactive |
| Fkbp39 | 1 | Wg reporter activity lowered | 2336 | – | 1641 | – | active |
| Trxr1 | 1 | – | 3200 | 6019 | 1243 | 2000 | inactive |
| Trxr1 | 2 | – | 7.20e5 | 6.99e5 | 3.56e5 | 3.45e5 | inactive |
| CAH6 | 1 | – | 10269 | – | 3921 | – | inactive |
| CG15478 | 1 | – | 24714 | – | 15393 | – | inactive |
| CG10863 | 1 | – | 7088 | – | 2848 | – | inactive |
| Gpdh1 | 1 | – | 10432 | 5.51e5 | 5153 | 2.31e5 | inactive |
| Gpdh1 | 2 | – | 5.86e5 | 6.25e5 | 3.18e5 | 2.93e5 | inactive |
| CG30095 | 1 | – | 5859 | – | 2417 | – | inactive |
| kdn | 1 | – | 18359 | – | 10203 | – | inactive |
| CG7497 | 1 | – | 3627 | – | 2050 | – | inactive |
| CG43136 | 1 | – | 4087 | – | 1612 | – | inactive |
| Cpsf73 | 1 | – | 17318 | – | 4712 | – | inactive |
| MED27 | 1 | – | 11746 | – | 2020 | – | inactive |
| CG11883 | 1 | – | 9461 | – | 3552 | – | inactive |
| CG11458 | 1 | – | 16192 | – | 4609 | – | inactive |
| SmydA-1 | 1 | – | 14393 | – | 4060 | – | inactive |
| Rnf146 | 1 | Wg reporter activity raised | 32024 | – | 4530 | – | active |
| CG2269 | 1 | – | 14796 | – | 5301 | – | inactive |
| polo | 1 | – | 9344 | – | 3484 | – | inactive |
| polo | 2 | – | 5.90e5 | 4.79e5 | 1.34e5 | 1.18e5 | inactive |

Limited to “firefly reporter light, replicate 1”, for 14 of the entries above:
CG15580	11245
CG9626	5035
TM9SF2	8675
dl #1	11186
dl #2	3021
CG8388	5052
CG32379	1088
PIG-O	20455
Tsp42Ei	3257
CG7990 #1	4972
CG7990 #2	2870
DCX-EMAP #1	4944
DCX-EMAP #2	6978
Mtk	9016
